{"source": "PubChem BioAssay AID652272 (Drosophila RNAi Screening Center, 2013)", "assay": "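Genes whose knock-down decreases or increases Hedgehog reporter output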 (primary screen)", "cell system": "Drosophila clone 8 (Cl8) cells", "reagents": "long dsRNA against Drosophila genes", "detection": "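Plate reader light from a firefly reporter under a ptc promoter fragment that responds to Hedgehog, with Renilla light as transfection reference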", "scale": "firefly Hh reporter signal: higher = more ptc reporter light; Renilla reference signal: higher = more Renilla control light", "call rule": "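Called a hit if the two-replicate mean z-score lies below -2 or above +3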", "meaning of the calls": "active = hit: reporter lowered or raised; inactive = not a hit", "note": "The deposit covers about 21,000 reagents; below is an unselected part of those with a known target gene and a result. Of all reagents, 503 (2.4%) are marked active. 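Raw plate light values, not normalised; calls rest on replicate z-scores that were not deposited; hits include reporter decreases as well as increases.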 Reagents against one gene are numbered here. Not given: the amount of reagent, the time to read-out."}
{"Target gene":"CG18538","reagent":1,"firefly Hh reporter signal, replicate 1":1.02e5,"firefly Hh reporter signal, replicate 2":57895,"Renilla reference signal, replicate 1":2722,"Renilla reference signal, replicate 2":4517,"activity call":"inactive"}
{"Target gene":"Irc","reagent":1,"firefly Hh reporter signal, replicate 1":91670,"firefly Hh reporter signal, replicate 2":73788,"Renilla reference signal, replicate 1":3920,"Renilla reference signal, replicate 2":3072,"activity call":"inactive"}
{"Target gene":"CG8675","reagent":1,"firefly Hh reporter signal, replicate 1":1.00e5,"firefly Hh reporter signal, replicate 2":1.02e5,"Renilla reference signal, replicate 1":2301,"Renilla reference signal, replicate 2":2720,"activity call":"inactive"}
{"Target gene":"Gnpnat","reagent":1,"firefly Hh reporter signal, replicate 1":1.43e5,"firefly Hh reporter signal, replicate 2":1.05e5,"Renilla reference signal, replicate 1":3456,"Renilla reference signal, replicate 2":2377,"activity call":"inactive"}
{"Target gene":"ACXE","reagent":1,"firefly Hh reporter signal, replicate 1":1.16e5,"firefly Hh reporter signal, replicate 2":44192,"Renilla reference signal, replicate 1":2998,"Renilla reference signal, replicate 2":3881,"activity call":"inactive"}
{"Target gene":"dpr20","reagent":1,"firefly Hh reporter signal, replicate 1":1.12e5,"firefly Hh reporter signal, replicate 2":1.04e5,"Renilla reference signal, replicate 1":4741,"Renilla reference signal, replicate 2":4381,"activity call":"inactive"}
{"Target gene":"nerfin-2","reagent":1,"firefly Hh reporter signal, replicate 1":72304,"firefly Hh reporter signal, replicate 2":1.04e5,"Renilla reference signal, replicate 1":2336,"Renilla reference signal, replicate 2":2957,"activity call":"inactive"}
{"Target gene":"CG13700","reagent":1,"firefly Hh reporter signal, replicate 1":1.22e5,"Renilla reference signal, replicate 1":1761,"Renilla reference signal, replicate 2":3124,"activity call":"inactive"}
{"Target gene":"olf413","reagent":1,"firefly Hh reporter signal, replicate 1":1.62e5,"Renilla reference signal, replicate 1":4025,"activity call":"inactive"}
{"Target gene":"olf413","reagent":2,"firefly Hh reporter signal, replicate 1":5.65e5,"firefly Hh reporter signal, replicate 2":1.44e5,"firefly Hh reporter signal, replicate 3":1.90e5,"Renilla reference signal, replicate 1":4880,"Renilla reference signal, replicate 2":3616,"activity call":"inactive"}
{"Target gene":"olf413","reagent":3,"firefly Hh reporter signal, replicate 1":1.39e5,"firefly Hh reporter signal, replicate 2":1.44e5,"Renilla reference signal, replicate 1":4218,"Renilla reference signal, replicate 2":4160,"activity call":"inactive"}
{"Target gene":"olf413","reagent":4,"firefly Hh reporter signal, replicate 1":1.29e5,"firefly Hh reporter signal, replicate 2":1.82e5,"Renilla reference signal, replicate 1":4150,"Renilla reference signal, replicate 2":5029,"activity call":"inactive"}

Records listed so far whose gene name starts with C or c:
{"Target gene":"CG18538","reagent":1,"firefly Hh reporter signal, replicate 1":1.02e5,"firefly Hh reporter signal, replicate 2":57895,"Renilla reference signal, replicate 1":2722,"Renilla reference signal, replicate 2":4517,"activity call":"inactive"}
{"Target gene":"CG8675","reagent":1,"firefly Hh reporter signal, replicate 1":1.00e5,"firefly Hh reporter signal, replicate 2":1.02e5,"Renilla reference signal, replicate 1":2301,"Renilla reference signal, replicate 2":2720,"activity call":"inactive"}
{"Target gene":"CG13700","reagent":1,"firefly Hh reporter signal, replicate 1":1.22e5,"Renilla reference signal, replicate 1":1761,"Renilla reference signal, replicate 2":3124,"activity call":"inactive"}
